Results as given in article PMC8377056.
No constants are given. Whether binding was seen depends on the method and setting. Some results given as binding are weak or reduced against the parent protein; the word gives no strength.

Chains of the proteins cited; added tags and fusions are not shown. Residues count along the entry.
UniProt P35951, residues 22-862: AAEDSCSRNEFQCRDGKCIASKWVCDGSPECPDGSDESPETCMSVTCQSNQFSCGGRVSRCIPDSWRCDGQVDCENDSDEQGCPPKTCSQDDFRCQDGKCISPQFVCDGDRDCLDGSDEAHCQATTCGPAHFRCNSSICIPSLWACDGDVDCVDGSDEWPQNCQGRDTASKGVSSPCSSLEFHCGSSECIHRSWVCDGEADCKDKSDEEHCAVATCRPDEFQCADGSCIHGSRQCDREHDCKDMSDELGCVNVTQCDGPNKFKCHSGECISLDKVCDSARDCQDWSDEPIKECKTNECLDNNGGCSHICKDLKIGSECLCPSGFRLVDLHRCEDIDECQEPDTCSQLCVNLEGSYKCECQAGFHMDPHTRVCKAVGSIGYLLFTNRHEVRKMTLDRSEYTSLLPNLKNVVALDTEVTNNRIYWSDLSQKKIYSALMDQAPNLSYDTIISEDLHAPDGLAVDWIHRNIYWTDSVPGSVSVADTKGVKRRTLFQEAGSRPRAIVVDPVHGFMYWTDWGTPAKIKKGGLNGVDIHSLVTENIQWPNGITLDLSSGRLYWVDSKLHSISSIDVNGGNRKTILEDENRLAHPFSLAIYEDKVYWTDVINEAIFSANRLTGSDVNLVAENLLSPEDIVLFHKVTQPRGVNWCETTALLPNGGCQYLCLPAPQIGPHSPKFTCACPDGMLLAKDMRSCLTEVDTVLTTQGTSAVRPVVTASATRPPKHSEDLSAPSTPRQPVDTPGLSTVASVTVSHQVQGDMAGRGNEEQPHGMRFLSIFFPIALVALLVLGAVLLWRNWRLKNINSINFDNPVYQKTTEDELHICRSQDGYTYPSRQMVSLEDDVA
UniProt P04114, residues 28-4563: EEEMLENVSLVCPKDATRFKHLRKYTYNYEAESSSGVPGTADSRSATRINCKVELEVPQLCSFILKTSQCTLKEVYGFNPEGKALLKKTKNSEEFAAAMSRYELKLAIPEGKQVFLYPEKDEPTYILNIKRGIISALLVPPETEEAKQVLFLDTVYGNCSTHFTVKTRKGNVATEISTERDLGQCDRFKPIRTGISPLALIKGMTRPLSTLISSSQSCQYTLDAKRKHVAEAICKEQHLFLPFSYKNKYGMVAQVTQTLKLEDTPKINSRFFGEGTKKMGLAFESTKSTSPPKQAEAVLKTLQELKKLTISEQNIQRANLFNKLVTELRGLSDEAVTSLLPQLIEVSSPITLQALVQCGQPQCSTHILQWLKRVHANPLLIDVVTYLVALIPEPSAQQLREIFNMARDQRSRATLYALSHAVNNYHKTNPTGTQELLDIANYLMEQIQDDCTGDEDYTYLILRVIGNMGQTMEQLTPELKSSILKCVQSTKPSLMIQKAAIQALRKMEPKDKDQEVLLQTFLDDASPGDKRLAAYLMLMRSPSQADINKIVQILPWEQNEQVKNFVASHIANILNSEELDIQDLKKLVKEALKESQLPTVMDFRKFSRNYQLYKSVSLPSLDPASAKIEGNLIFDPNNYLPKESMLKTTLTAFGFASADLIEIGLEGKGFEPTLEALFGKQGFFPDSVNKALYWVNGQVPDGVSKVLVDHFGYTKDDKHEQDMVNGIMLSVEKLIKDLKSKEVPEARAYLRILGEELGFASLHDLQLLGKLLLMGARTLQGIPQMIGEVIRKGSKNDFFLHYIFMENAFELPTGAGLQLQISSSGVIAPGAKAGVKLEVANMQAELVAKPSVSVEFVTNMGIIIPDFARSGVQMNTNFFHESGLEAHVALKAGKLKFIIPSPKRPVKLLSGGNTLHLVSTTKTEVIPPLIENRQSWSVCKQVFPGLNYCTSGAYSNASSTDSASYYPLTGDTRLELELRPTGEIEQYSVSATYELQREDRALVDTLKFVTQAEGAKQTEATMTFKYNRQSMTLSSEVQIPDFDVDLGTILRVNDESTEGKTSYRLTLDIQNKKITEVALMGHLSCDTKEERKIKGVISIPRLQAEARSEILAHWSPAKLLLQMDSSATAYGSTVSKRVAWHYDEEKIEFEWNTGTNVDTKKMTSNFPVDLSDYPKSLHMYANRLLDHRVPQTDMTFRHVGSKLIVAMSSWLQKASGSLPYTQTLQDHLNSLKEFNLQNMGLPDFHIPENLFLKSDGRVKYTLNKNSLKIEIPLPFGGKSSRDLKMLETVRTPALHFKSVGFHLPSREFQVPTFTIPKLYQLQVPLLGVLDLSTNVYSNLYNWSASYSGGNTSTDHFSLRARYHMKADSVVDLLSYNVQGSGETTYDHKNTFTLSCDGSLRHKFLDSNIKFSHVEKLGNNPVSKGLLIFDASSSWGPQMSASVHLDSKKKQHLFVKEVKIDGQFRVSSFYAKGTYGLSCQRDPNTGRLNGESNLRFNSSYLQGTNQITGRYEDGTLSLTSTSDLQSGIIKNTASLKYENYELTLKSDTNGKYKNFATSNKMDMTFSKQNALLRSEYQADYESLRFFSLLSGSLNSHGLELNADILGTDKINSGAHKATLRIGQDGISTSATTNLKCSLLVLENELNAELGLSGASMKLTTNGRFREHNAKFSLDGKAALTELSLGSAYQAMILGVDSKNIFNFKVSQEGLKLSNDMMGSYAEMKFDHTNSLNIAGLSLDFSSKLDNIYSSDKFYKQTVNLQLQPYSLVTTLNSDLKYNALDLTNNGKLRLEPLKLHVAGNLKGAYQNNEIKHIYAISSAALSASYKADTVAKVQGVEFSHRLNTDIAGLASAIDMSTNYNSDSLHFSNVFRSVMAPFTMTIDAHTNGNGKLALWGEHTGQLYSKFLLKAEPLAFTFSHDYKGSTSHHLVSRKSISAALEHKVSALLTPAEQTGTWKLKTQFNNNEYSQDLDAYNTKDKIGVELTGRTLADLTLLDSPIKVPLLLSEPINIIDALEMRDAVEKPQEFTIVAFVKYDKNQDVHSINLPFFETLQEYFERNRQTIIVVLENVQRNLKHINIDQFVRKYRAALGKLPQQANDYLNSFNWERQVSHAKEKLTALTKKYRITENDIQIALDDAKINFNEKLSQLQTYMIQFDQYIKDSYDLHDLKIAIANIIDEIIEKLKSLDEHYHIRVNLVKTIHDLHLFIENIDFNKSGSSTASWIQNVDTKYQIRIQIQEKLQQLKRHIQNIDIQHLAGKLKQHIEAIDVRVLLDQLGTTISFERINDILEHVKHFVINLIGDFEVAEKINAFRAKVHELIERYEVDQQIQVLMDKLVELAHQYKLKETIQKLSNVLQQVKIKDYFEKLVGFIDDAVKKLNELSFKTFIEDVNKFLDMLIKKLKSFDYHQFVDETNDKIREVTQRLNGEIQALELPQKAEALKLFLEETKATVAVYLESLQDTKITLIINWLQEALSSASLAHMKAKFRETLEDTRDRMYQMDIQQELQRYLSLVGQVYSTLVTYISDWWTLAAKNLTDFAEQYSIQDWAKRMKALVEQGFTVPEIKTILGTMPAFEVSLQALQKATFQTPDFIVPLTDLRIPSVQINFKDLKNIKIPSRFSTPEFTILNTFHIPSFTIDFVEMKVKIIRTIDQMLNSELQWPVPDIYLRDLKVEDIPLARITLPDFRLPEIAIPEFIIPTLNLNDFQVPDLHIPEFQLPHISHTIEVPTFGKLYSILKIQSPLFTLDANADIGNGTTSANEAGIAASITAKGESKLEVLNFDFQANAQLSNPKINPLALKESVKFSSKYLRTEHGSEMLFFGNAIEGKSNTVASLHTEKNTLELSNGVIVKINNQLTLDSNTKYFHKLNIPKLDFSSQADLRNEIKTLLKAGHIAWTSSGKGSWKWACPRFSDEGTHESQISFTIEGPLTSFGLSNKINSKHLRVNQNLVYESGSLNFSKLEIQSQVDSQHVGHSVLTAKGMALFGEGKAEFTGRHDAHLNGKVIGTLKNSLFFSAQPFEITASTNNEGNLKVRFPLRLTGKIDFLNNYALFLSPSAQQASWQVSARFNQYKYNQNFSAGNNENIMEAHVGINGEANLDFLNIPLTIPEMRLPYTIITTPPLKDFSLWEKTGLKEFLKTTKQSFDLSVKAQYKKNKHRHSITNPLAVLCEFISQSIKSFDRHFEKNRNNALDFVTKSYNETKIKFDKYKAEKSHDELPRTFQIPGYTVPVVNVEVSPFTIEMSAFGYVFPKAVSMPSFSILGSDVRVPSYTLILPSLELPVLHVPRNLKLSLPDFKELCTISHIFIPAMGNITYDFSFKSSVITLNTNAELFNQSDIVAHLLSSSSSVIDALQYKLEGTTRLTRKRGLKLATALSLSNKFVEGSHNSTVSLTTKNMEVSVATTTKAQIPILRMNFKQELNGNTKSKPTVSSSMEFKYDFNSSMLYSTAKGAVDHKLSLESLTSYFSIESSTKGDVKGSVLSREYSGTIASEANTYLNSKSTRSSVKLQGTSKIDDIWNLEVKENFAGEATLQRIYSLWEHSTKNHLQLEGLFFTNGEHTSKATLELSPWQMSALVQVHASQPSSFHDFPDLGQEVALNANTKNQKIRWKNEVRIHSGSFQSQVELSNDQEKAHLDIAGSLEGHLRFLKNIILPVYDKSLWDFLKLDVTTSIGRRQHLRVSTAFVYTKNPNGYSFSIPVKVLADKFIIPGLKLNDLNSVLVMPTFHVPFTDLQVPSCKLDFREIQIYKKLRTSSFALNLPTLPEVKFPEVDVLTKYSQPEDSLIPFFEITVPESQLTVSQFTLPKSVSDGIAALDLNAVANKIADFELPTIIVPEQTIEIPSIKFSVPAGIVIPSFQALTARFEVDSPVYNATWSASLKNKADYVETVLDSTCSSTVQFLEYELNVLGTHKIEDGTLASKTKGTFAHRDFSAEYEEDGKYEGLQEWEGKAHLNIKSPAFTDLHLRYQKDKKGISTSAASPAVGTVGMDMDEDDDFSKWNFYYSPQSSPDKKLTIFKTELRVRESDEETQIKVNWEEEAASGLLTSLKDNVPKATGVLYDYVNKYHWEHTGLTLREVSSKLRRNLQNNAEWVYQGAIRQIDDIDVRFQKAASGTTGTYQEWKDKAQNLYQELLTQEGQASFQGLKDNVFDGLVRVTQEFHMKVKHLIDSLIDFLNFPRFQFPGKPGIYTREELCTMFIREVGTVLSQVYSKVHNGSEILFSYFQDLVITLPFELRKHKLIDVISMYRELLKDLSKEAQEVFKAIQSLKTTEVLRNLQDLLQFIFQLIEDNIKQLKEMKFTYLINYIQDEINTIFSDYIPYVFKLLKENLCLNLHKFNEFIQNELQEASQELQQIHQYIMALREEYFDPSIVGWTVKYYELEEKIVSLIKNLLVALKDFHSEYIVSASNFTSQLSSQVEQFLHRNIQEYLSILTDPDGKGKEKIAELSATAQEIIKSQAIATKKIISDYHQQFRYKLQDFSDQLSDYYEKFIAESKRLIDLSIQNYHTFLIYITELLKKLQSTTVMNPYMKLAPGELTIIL

Biological target: LDLR on Ldlr WT PK4A cells (mouse (endogenous in PK4A)) (UniProt P35951)
Test: flow cytometry on cells; Ldlr WT or KO PK4A cells incubated with conjugate (20 nM) with or without DiI-LDL (20 ug/ml) in DMEM-1% BSA for 6 h; half of the cells acid-stripped (pH 3) to tell total (bound and internalized) from intracellular signal; only the binder purified

binding: binds
Substance: fluorescent LDL (DiI-LDL) (from UniProt P04114 28-4563) (ligand)
